# Laboratory results published in US20260248799A1, “COMBINATIONS OF RETINALDEHYDE DEHYDROGENASE 1 (RALDH1) INHIBITORS AND IMMUNOSTIMULATORS AND METHODS USING SAME” (The Trustees of the University of Pennsylvania, priority 2023, published 2026).
# At least one structure is not confirmed: it was looked up by name or label, or the drawing left a doubt.
# Columns and labels:
# human HCC lines = assay: Human HCC lines cocultured with pretreated macrophages; format: cell-based; conditions: compared to non-treated control macrophages; 3 days
# Method: (§1) FIGS. 24A-24E: Raldh1-INH blocks tumor supportive functions of monocytes and macrophages. FIG. 24A: Circulating primary human monocytes were collected from donors and cultured with MCSF (50 ng/mL) to generate macrophages. On day 3 of these cultures, DMSO or RA (100 nmol/L) was added to generate control monocyte-derived macrophages (Control-MoDM) or RA monocyte-derived macrophages (RA-MoDM), respectively. On day 7 of these cultures, macrophages were collected for each well after washing with 1×PBS, mixed with Huh7 cells at approximately 50:50 ratio, and the mix injected into the flanks of NU/J mice. Huh7 tumors cells that were not mixed with any macrophages before flank injection served as an additional control. Tumor volume was measured every 2 days (left graph). 19 days after tumor injection, mice were sacrificed and tumor weight (right graph) was measured. […] Three or more independent experiments were performed with at least three replicates per experimental group. Unpaired t test, two-tailed. […] Tumor growth was monitored daily (left graph). 13 days after tumor cell transplantation, mice were sacrificed and tumor weight measured (right graph). […] Three days later, cells were harvested, counted, and stained with PI for FCS analyses. […] Cell proliferation was measured by counting live cell numbers (y-axis). […] 72 hours later, the cells were washed, counted, and analyzed by FCS. […]
# [1] = system: macrophages from primary human monocytes; assay: Numbers of live monocyte-derived macrophages in vitro; format: cell-based; conditions: RA exposure
# Method: as §1
# Huh7 tumors = assay: Macrophage-Huh7 co-transplantation in NU/J mice; format: in vivo, mouse; conditions: RA 100 nmol/L; macrophages mixed 50:50 with Huh7
compound,measurement,setting,value
"CC1=C(/C=C/C(C)=C/C=C/C(C)=C/C(=O)O)C(C)(C)CCC1 [RA, retinoic acid]",tumor cell numbers in coculture with pre-treated macrophages,human HCC lines,significantly increased tumor cell numbers
same,macrophage numbers,[1],increased macrophage numbers
same,tumor growth with co-transplanted RA-treated macrophages,Huh7 tumors,accelerated tumor growth
